No constants are given. Whether binding was seen depends on the method and setting. Some results given as binding are weak or reduced against the parent protein; the word gives no strength. Tags and fused reporters may be left off the sequences shown.

Experimental findings from doi:10.1101/2023.01.10.523476 (bioRxiv, 2023) are described below.

The target of the assay is GspDβ secretin (ETEC H10407 strain) with hexahistidine tag (Enterotoxigenic E. coli (ETEC) H10407 strain) (UniProt E3PJ86). The assay can be described thus: cryo-EM structure.

B1: GspDβ secretin (ETEC H10407 strain) with hexahistidine tag (natural protein)
chain: EEATFTANFKDTDLKSFIETVGANLNKTIIMGPGVQGKVSIRTMTPLNERQYYQLFLNLLEAQGYAVVPMENDVLKVVKSSAAKVEPLPLVGEGSDNYAGDEMVTKVVPVRNVSVRELAPILRQMIDSAGSGNVVNYDPSNVIMLTGRASVVERLTEVIQRVDHAGNRTEEVIPLDNASASEIARVLESLTKNSGENQPATLKSQIVADERTNSVIVSGDPATRDKMRRLIRRLDSEMERSGNSQVFYLKYSKAEDLVDVLKQVSGTLTAAKEEAEGTVGSGREIVSIAASKHSNALIVTAPQDIMQSLQSVIEQLDIRRAQVHVEALIVEVAEGSNINFGVQWASKDAGLMQFANGTQIPIGTLGAAISQAKPQKGSTVISENGATTINPDTNGDLSTLAQLLSGFSGTAVGVVKGDWMALVQAVKNDSSSNVLSTPSITTLDNQEAFFMVGQDVPVLTGSTVGSNNSNPFNTVERKKVGIMLKVTPQINEGNAVQMVIEQEVSKVEGQTSLDVVFGERKLKTTVLANDGELIVLGGLMDDQAGESVAKVPLLGDIPLIGNLFKSTADKKEKRNLMVFIRPTILRDGMAADGVSQRKYNYMRAEQIYRDEQGLSLMPHTAQPVLPAQNQALPPEVRAFLNAGRTR
Consider B1, for which the binding result is listed as “binds”.
